Assay results: US9000188B2, “Monocyclic cyanoenones and methods of use thereof” (Trustees of Dartmouth College, priority 2008, dated 2015)

Assay: UV studies of Michael reactivity with dithiothreitol (DTT)
Type: physicochemical
Conditions: for second UV absorption on addition of DTT (Michael adduct): 0.1 mM compound, pH 7.4 phosphate buffered saline, 1% ethanol; for intensity of the second absorption with DTT relative to MCE-1: around 330 nm

Structure (SMILES) | second UV absorption on addition of DTT (Michael adduct) | intensity of the second absorption with DTT relative to MCE-1 | change of UV spectrum on addition of DTT (0.1 mM DTT) | change of UV spectrum on addition of DTT (1 mM DTT)
CC1(C)C=CC(=O)C(C#N)=C1 [MCE-2, reference compound] | do not give the second absorption |  |  | 
C=CC1(C)C=CC(=O)C(C#N)=C1 (centres unmarked) [MCE-15, 3-methyl-6-oxo-3-vinyl-cyclohexa-1,4-dienecarbonitrile] | do not give the second absorption |  |  | 
C#CC1(Cc2ccccc2)C=CC(=O)C(C#N)=C1 (centres unmarked) [MCE-13, 3-Benzyl-3-ethynyl-6-oxocyclohexa-1,4-dienecarbonitrile] | show second absorptions | a bit weaker than the corresponding absorption of MCE-1 |  | 
CC1(C)C=C(C#N)C(=O)C(C)(C)C1 [MCE-5, 3,3,5,5-Tetramethyl-2-oxocyclohex-1-enecarbonitrile] |  |  | no apparent change | weak absorption at 275 nm
C#CC1(C)C=C(C#N)C(=O)CC1 (centres unmarked) [MCE-3, 3-Ethynyl-3-methyl-6-oxocyclohex-1-enecarbonitrile] |  |  | does not change | small red shift
C#CC1(C)C=CC(=O)C(C#N)=C1 (centres unmarked) [MCE-1, 3-Ethynyl-3-methyl-6-oxocyclohexa-1,4-dienecarbonitrile] | gives the second UV absorption at a high wavelength |  |  | 
C#C[C@]12C=C(C#N)C(=O)C=C1[C@@]1(C)CCC(=O)C(C)(C)[C@@H]1CC2 [MCE-7] | show second absorptions | similarly intense as the corresponding absorption of MCE-1 |  | 
